{"source": "patent US20100087474A1", "about": "“MATERIALS AND METHODS FOR ENHANCED DEGRADATION OF MUTANT PROTEINS ASSOCIATED WITH HUMAN DISEASE” (UNIVERSITY OF FLORIDA, priority 2005, published 2010)", "key": {"[1]": {"test_system": "Bip, calnexin, calreticulin, Hsp70, Hsp90", "experiment": "UPR/HSR chaperone levels in opsin-expressing HEK293 cells (immunoblot)", "type": "cell-based, human", "conditions": "autophagy induced by rapamycin or amino-acid starvation; P23H cells with or without 11-cis-retinal", "method": "(§1) Cell lysates were electrophoresed on 10% SDS polyacrylamide gels and transferred onto Immobilon-NC (Millipore, Billerica, Mass.) nitrocellulose membranes. The membranes were incubated at room temperature for 1 hour with a commercially available blocking buffer (Li-Cor, Lincoln, Nebr.) diluted 1:1 in PBST (PBS with 0.1% triton X-100, pH 7.4), followed by a 1 hour incubation with the indicated primary antibody. The blots were washed three times for 5 minutes each in PBST, and incubated for 1 hour with a true near infrared dye, IRDye800-conjugated secondary antibody (Rockland Immunochemicals Inc., Gilbertsville, Pa.). Finally the membranes were again washed three times with PBST and scanned in an Odyssey infrared scanner (Li-Cor, Lincoln, Nebr.). Quantitations on immunoblots were performed using Licor software. Primary antibodies included antibodies to opsin, HA-tag (Covance Princeton, N.J.), mTOR, phosphorylated mTOR (Upstate Charlottesville, Va.), calnexin, hsp70 (Stressgen, Victoria, BC, CA), Bip (BD PharMingen, San Diego, Calif.) to tubulin (Sigma Chemical, St. Louis, Mo.), 1D4 (University of British Columbia), Akt, phospho-Akt, S6K, phospho-S6K, MAPK and phosphor-MAPK (Cell Signaling Technology, Beverly, Mass.).\n(§2) FTI-277 (Calbiochem) was used at 50 μM. […]"}, "Bip, calnexin and hsp70": {"test_system": "Bip, calnexin and hsp70", "experiment": "chaperone levels in CFTR-expressing BHK cells (immunoblot)", "type": "cell-based, hamster", "conditions": "autophagic induction; cells expressing wild-type or mutant CFTR"}, "S6 kinase": {"test_system": "S6 kinase", "experiment": "S6 kinase phosphorylation in HEK293 cells (immunoblot)", "type": "cell-based, human", "conditions": "within two hours of treatment", "method": "as §1, §2"}, "[2]": {"test_system": "HEK293 cells expressing P23H opsin", "experiment": "lysotracker staining of lysosomal vacuoles", "type": "cell-based, human", "method": "Staining with lysotracker (Molecular Probes) was also performed on live cells at 37° C. Confocal imaging was performed using the Leica TCS SP2 AOBS Spectral Confocal Microscope at 63× magnification."}, "ΔF508 CFTR": {"test_system": "ΔF508 CFTR", "experiment": "ΔF508 CFTR degradation in BHK stable cells (immunoblot)", "type": "cell-based, human"}, "wild-type opsin": {"test_system": "wild-type opsin", "experiment": "wild-type opsin levels in HEK293 stable cells under autophagy induction (immunoblot)", "type": "cell-based, human", "conditions": "autophagy induced by rapamycin, amino acid depletion or both; twelve hour course"}, "wild-type CFTR": {"test_system": "wild-type CFTR", "experiment": "wild-type CFTR levels in BHK stable cells under autophagy induction (immunoblot)", "type": "cell-based, human", "conditions": "autophagy induced by rapamycin, amino-acid depletion or both"}}, "note": "At least one structure is not confirmed: it was looked up by name or label, or the drawing left a doubt.", "data": [{"smiles": "CO[C@H]1C[C@@H]2CC[C@@H](C)[C@@](O)(O2)C(=O)C(=O)N2CCCC[C@H]2C(=O)O[C@H]([C@H](C)C[C@@H]2CC[C@@H](O)[C@H](OC)C2)CC(=O)[C@H](C)/C=C(\\C)[C@@H](O)[C@@H](OC)C(=O)[C@H](C)C[C@H](C)/C=C/C=C/C=C/1C", "note": "[rapamycin]", "values": [{"measurement": "cellular levels of Bip, calnexin and Hsp70", "setting": "[1]", "value": "unchanged"}, {"measurement": "levels of chaperones Bip, calnexin and hsp70", "setting": "Bip, calnexin and hsp70", "value": "No difference"}, {"measurement": "phosphorylation of S6 kinase", "setting": "S6 kinase", "value": "dramatically reduced"}, {"measurement": "lysosomal numbers and size (lysotracker)", "setting": "[2]", "value": "increase"}, {"measurement": "ΔF508 protein degraded", "setting": "ΔF508 CFTR; rapamycin alone, after twelve hours", "value": "fifty"}, {"measurement": "ΔF508 protein degraded", "setting": "ΔF508 CFTR; rapamycin combined with amino acid starvation, after twelve hours", "value": "eighty"}, {"measurement": "ΔF508 protein degraded", "setting": "ΔF508 CFTR; rapamycin combined with amino acid starvation, within six hours", "value": "seventy-five"}, {"measurement": "levels of wild-type opsin", "setting": "wild-type opsin", "value": "essentially unchanged"}, {"measurement": "wild-type CFTR protein levels", "setting": "wild-type CFTR", "value": "did not affect"}]}]}
